{
  "source": "PubChem BioAssay AID624297",
  "about": "(National Center for Advancing Translational Sciences (NCATS), 2012)",
  "note": "Among all 340,000 compounds or so, about 6,200 (1.8%) were called active. The inconclusive results got no clear call from the source; some entries with a clear call stand among them for comparison. Calls come from the whole dose curve; as a rule, active = well fitted activation curve with a large enough effect; inconclusive = small, poorly fitted or top-dose-only effect; inactive = no such curve, though single readings can be large or run the other way. Potencies of inconclusive entries are doubtful fits and often do not repeat. Potency is the fitted concentration of half-maximal effect.",
  "data": [
    {"experiment": "A quantitative high throughput screen for small molecules that induce DNA re-replication in SW480 colon adenocarcinoma cells; note: nearly all actives have a fitted effect of over 55% in size; for re-replication activation: % of control where 0% means no effect.", "conditions": "Hoechst DNA content imaging, 48 h; re-replication activation: at 46.1 µM (top of the series) unless noted", "how_it_was_run": "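Compounds, transferred as 23 nL by pin tool, were incubated with cells for 48 hr; DNA content per nucleus was then quantified by Hoechst staining and fluorescence plate imaging.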", "values": [
      {"smiles": "NC(=O)C1CCN(C(=O)c2ccc3c(c2)S(=O)(=O)c2ccccc2C3=O)CC1", "Potency": "inconclusive: 11.2 µM [activator, partial curve, poor fit]"},
      {"smiles": "Nc1c(NC=O)c(=O)n(Cc2ccccc2)c(=O)n1Cc1ccccc1", "re-replication activation": "inactive: -15.9%"},
      {"smiles": "NCCc1ccc(O)c(O)c1", "Potency": "inconclusive: 29.1 µM [activator, single point]"},
      {"smiles": "O=C(COC(=O)c1cccc(S(=O)(=O)N2CCCCC2)c1)NC1CCCCC1", "re-replication activation": "inactive: 0.623%"},
      {"smiles": "COc1ccc(NS(=O)(=O)c2cccc(C(=O)N/N=C/c3c(F)c(F)c(F)c(F)c3F)c2)cc1", "Potency": "inconclusive: 29.1 µM [activator, single point]"},
      {"smiles": "CCN(C(=O)c1ccc(S(=O)(=O)N2CCC(C)CC2)cc1)C1CCS(=O)(=O)C1", "note": "(configuration not stated)", "Potency": "inconclusive: 29.1 µM [activator, single point]"},
      {"smiles": "CC(=O)N/C(=C\\c1ccccc1)C(=O)OCC(=O)NC(=O)c1ccccc1", "Potency": "inconclusive: 4.61 µM [activator, full curve, poor fit]"},
      {"smiles": "CC1Cc2ccccc2N1C(=O)CSc1ncccn1", "note": "(configuration not stated)", "Potency": "inconclusive: 29.1 µM [activator, single point]"},
      {"smiles": "O=C(N/N=C/c1cccc2cccnc12)c1ccccc1O", "Potency": "inconclusive: 0.461 µM [activator, full curve, poor fit]"},
      {"smiles": "O=C(Nc1ccccc1)c1ccc(NCC2CCCO2)c([N+](=O)[O-])c1", "note": "(configuration not stated)", "Potency": "inconclusive: 29.1 µM [activator, partial curve, poor fit]"},
      {"smiles": "Cc1cc(N/N=C/c2ccc(Cl)cc2)nc(NCc2ccccc2)n1", "Potency": "inconclusive: 29.1 µM [activator, single point]"},
      {"smiles": "CC(=O)c1c(C)oc2ccc(N(C(C)=O)S(=O)(=O)c3cccc([N+](=O)[O-])c3)cc12", "Potency": "inconclusive: 29.1 µM [activator, single point]"},
      {"smiles": "COc1cccc(NC(=O)Cc2nnc(SCC(=O)NC3=NCCS3)n2C)c1", "re-replication activation": "inactive: -5.9%"},
      {"smiles": "C(=C1c2ccccc2-c2ccccc21)c1ccccn1", "Potency": "inconclusive: 29.1 µM [activator, single point]"},
      {"smiles": "CC(OC(=O)C1CSC2(C)CCC(=O)N12)C(=O)Nc1ccc(F)cc1", "note": "(configuration not stated)", "re-replication activation": "inactive: 1.29%"},
      {"smiles": "CC1C(=O)C(C)C(c2ccc(Br)cc2)NC1c1ccc(Br)cc1", "note": "(configuration not stated)", "Potency": "inconclusive: 23.1 µM [activator, single point]"},
      {"smiles": "FC(F)Sc1ccc(NC(=S)NCc2ccccc2)cc1", "re-replication activation": "inactive: 17.7%"},
      {"smiles": "COC(=O)N1CC(c2ccccc2)CC1=O", "note": "(configuration not stated)", "re-replication activation": "inactive: 1%"},
      {"smiles": "Cc1cc(C)cc(OCC(=O)Nc2ccccc2N2CCCCC2)c1", "Potency": "inconclusive: 18.4 µM [activator, partial curve, poor fit]"},
      {"smiles": "Cc1ccccc1C(C)NC(=O)COC(=O)Cn1cc(C(F)(F)F)ccc1=O", "note": "(configuration not stated)", "re-replication activation": "inactive: -5.65%"},
      {"smiles": "COc1ccc(C(C#N)c2nc3ccccc3nc2Cl)cc1", "note": "(configuration not stated)", "Potency": "inconclusive: 29.1 µM [activator, single point]"},
      {"smiles": "COc1ccc(OC)c(CCNC(=O)Cn2nc(C)c3c(C)n(-c4ccc(C)cc4)nc3c2=O)c1", "re-replication activation": "inactive: -23.8%"},
      {"smiles": "O=C(NCc1ccc2c(c1)OCO2)C1CCN(S(=O)(=O)N2CCCCC2)CC1", "re-replication activation": "inactive: -7.35%"},
      {"smiles": "CC(C)C[C@H](NC(=O)OCC1c2ccccc2-c2ccccc21)C(=O)O", "re-replication activation": "inactive: 11.8%"},
      {"smiles": "O=S(=O)(c1ccc(Br)cc1)c1nc(-c2ccco2)oc1NCC1CCCO1", "note": "(configuration not stated)", "Potency": "inconclusive: 6.51 µM [activator, single point]"},
      {"smiles": "COc1ccc(Cl)cc1N1C(=NC(=O)C2CCCO2)SC2CS(=O)(=O)CC21", "note": "(configuration not stated)", "Potency": "inconclusive: 29.1 µM [activator, single point]"},
      {"smiles": "CCCCCC=CCC=CCCCCCCCC(=O)OCC", "re-replication activation": "inactive: 0.094%"},
      {"smiles": "O=C(COc1ccc2ccccc2c1)N[C@@H](C(=O)O)c1ccc(O)cc1", "re-replication activation": "inactive: -7.42%"},
      {"smiles": "C#CCN1C(=O)C(O)(CC(=O)/C=C/C=C/c2ccccc2)c2ccccc21", "note": "(configuration not stated)", "Potency": "inconclusive: 29.1 µM [activator, single point]"},
      {"smiles": "CC(C)c1ccc(-c2cc(C(=O)N3N=C(C(F)F)CC3(O)C(F)F)c3ccccc3n2)cc1", "note": "(configuration not stated)", "Potency": "inconclusive: 35.5 µM [activator, partial curve, poor fit]"},
      {"smiles": "O=C(CNC(=O)c1ccc2ccccc2c1)NCc1ccc(F)cc1", "Potency": "inconclusive: 29.1 µM [activator, single point]"},
      {"smiles": "COc1ccccc1C(C)NC(=O)c1ccc(C)o1", "note": "(configuration not stated)", "Potency": "inconclusive: 29.1 µM [activator, single point]"},
      {"smiles": "O=C1OCCC1Sc1nnc(-c2ccccc2Br)n1Cc1ccccc1", "note": "(configuration not stated)", "re-replication activation": "inactive: -2.51%"},
      {"smiles": "COc1ccccc1N1CCN(CCCN=C2CC(=O)N(C)C(=O)N2C)CC1", "re-replication activation": "inactive: -69.7%"},
      {"smiles": "COc1ccc(Cl)cc1-n1c(C)ccc1C", "Potency": "inconclusive: 29.1 µM [activator, single point]"},
      {"smiles": "O=C(NCCN1CCOCC1)c1ccc(Cl)c(Cl)c1", "re-replication activation": "inactive: 0.726%"},
      {"smiles": "COc1cc(Cl)c(C)cc1NC(=O)c1ccccc1NC(=O)CN1CCN(c2ccccn2)CC1", "re-replication activation": "inactive: 7.93%"},
      {"smiles": "CN1CCN(C(=O)CNC(=O)Cc2ccc(Cl)cc2)CC1", "Potency": "inconclusive: 29.1 µM [activator, single point]"},
      {"smiles": "CCOC(=O)C1=C(N)Oc2cc(C)oc(=O)c2C1c1cccnc1", "note": "(configuration not stated)", "Potency": "inconclusive: 13 µM [activator, partial curve, poor fit]"},
      {"smiles": "CCOC(=O)c1oc2ccc(/C=N/O)c(Cl)c2c1C", "re-replication activation": "inactive: -1.59%"},
      {"smiles": "O=S1(=O)CC(O)C(N2CCC(c3ccccc3)CC2)C1", "note": "(configuration not stated)", "Potency": "inconclusive: 13 µM [activator, partial curve, poor fit]"},
      {"smiles": "O=NNc1nc2ccccc2n1Cc1ccccc1", "Potency": "inconclusive: 14.6 µM [activator, single point]"},
      {"smiles": "CCc1ccc(Nc2n[n+](-c3ccccc3)c(-c3ccc(OCc4ccccc4)cc3)s2)cc1", "re-replication activation": "inactive: 3.22%"},
      {"smiles": "OCCCNc1nc(-c2ccc(Cl)cc2)nc2ccccc12", "Potency": "inconclusive: 0.731 µM [activator, full curve, poor fit]"},
      {"smiles": "Cc1ccc(Sc2c(C(=O)Nc3ccc(F)cc3F)c(C(F)(F)F)nn2C)cc1", "Potency": "inconclusive: 29.1 µM [activator, single point]"},
      {"smiles": "Cn1c(=O)c2ccccc2n(CC(=O)NC2CCCC2)c1=O", "Potency": "inconclusive: 6.51 µM [activator, single point]"},
      {"smiles": "O=C(c1cccnc1)N1CCCC(Nc2ccc(F)cc2)C1", "note": "(configuration not stated)", "re-replication activation": "inactive: -7.22%"},
      {"smiles": "O=[N+]([O-])c1nn(-c2ccc3c(c2)OCCO3)n(O)c1=NC1CCN(Cc2ccccc2)CC1", "Potency": "active: 7.31 µM"},
      {"smiles": "Cc1ccc(NC(=O)C2(c3cccs3)CCOCC2)cc1C", "re-replication activation": "inactive: -5.14%"},
      {"smiles": "O=C(Nc1nc(-c2cc3ccccc3o2)cs1)c1ccc(S(=O)(=O)N2CCCC2)cc1", "Potency": "inconclusive: 29.1 µM [activator, single point]"},
      {"smiles": "CCN1CCN(c2ccc(NC(=O)c3cc4ccccc4cc3OC)cc2C)CC1", "Potency": "inconclusive: 29.1 µM [activator, partial curve, poor fit]"},
      {"smiles": "CCCN=C1CC(C)(C)CC(=O)/C1=C(/O)CCC", "Potency": "inconclusive: 3.66 µM [activator, partial curve, poor fit]"},
      {"smiles": "Cc1ccc2oc(C(=O)NCc3ccccc3)cc(=O)c2c1", "re-replication activation": "inactive: 12.9%"},
      {"smiles": "CC(C)Cn1c(N)c(C(=O)CSc2ncccn2)c(=O)n(C)c1=O", "re-replication activation": "inactive: -11.1%"},
      {"smiles": "CC(c1ccccc1)N1C(=O)/C(=C/c2ccncc2)SC1=S", "note": "(configuration not stated)", "Potency": "active: 16.4 µM"},
      {"smiles": "CCc1ccc(NC(=S)N2CCC(NC(=O)c3ccccc3)CC2)cc1", "re-replication activation": "inactive: 0%"},
      {"smiles": "Cc1cc(NCCCO)n2c(nc3ccccc32)c1C#N", "Potency": "inconclusive: 29.1 µM [activator, single point]"},
      {"smiles": "S=c1[nH]nc(Cn2c(-c3ccccn3)nc3ccccc32)n1-c1ccc2c(c1)OCCO2", "re-replication activation": "inactive: -27.5%"},
      {"smiles": "Cc1ccc(N2C(=O)[C@@H]3[C@H](C2=O)[C@H]2C=C(C(=O)c4ccccc4)C=CN2[C@@H]3C(=O)c2ccc(Cl)cc2)cc1", "re-replication activation": "inactive: 7.63%"},
      {"smiles": "Cc1nc(Nc2nc(CSc3nc4ccccc4[nH]3)cc(=O)[nH]2)nc2ccccc12", "Potency": "inconclusive: 25.9 µM [activator, single point]"},
      {"smiles": "O=C(Nc1cccc(F)c1)Nc1cccc(Cl)c1", "Potency": "inconclusive: 0.82 µM [activator, full curve, poor fit]"},
      {"smiles": "O=C(COc1cccnc1[N+](=O)[O-])c1c[nH]c2ccccc12", "Potency": "inconclusive: 25.9 µM [activator, single point]"},
      {"smiles": "NNc1cccc(C=Cc2ccccc2)cc1=O", "Potency": "inconclusive: 23.1 µM [activator, single point]"},
      {"smiles": "COC(=O)c1ccc(NCc2c(O)ccc(O)c2Br)cc1Cl", "Potency": "inconclusive: 20.6 µM [activator, partial curve, poor fit]"},
      {"smiles": "COc1ccc(/C=C2\\SC(=S)N(CCC(=O)NC3C=CS(=O)(=O)C3)C2=O)cc1", "note": "(configuration not stated)", "re-replication activation": "inactive: 0.973%"},
      {"smiles": "CC(c1nc2ccccc2o1)N1C(=O)c2ccccc2C1=O", "note": "(configuration not stated)", "re-replication activation": "inactive: -1.77%"},
      {"smiles": "Cn1c(SCC(=O)c2ccccc2)nnc1C1CC1", "Potency": "inconclusive: 29.1 µM [activator, single point]"},
      {"smiles": "CC1=CC2(O)OCCN(CCO)C2=CC1=O", "note": "(configuration not stated)", "re-replication activation": "inactive: -4.02%"},
      {"smiles": "O=C(Cc1n[nH]c(=O)c2ccccc12)N/N=C/c1cc2c(cc1Cl)OCO2", "Potency": "inconclusive: 6.51 µM [activator, full curve, poor fit]"},
      {"smiles": "CCC(C)[C@H](NC(=O)[C@@H]1CSC2c3ccccc3C(=O)N21)C(=O)NC1CCCC1", "note": "(some centres not stated)", "Potency": "inconclusive: 10.3 µM [activator, partial curve, poor fit]"},
      {"smiles": "CCC(=O)Oc1ccc(C/C(=N\\O)c2ccc(O)cc2O)o1", "Potency": "inconclusive: 18.4 µM [activator, single point]"},
      {"smiles": "CC(Sc1ccc(Cl)cc1)C(=O)N(C)CC(=O)Nc1ccc(N2CCOCC2)cc1", "note": "(configuration not stated)", "Potency": "inconclusive: 9.2 µM [activator, partial curve, poor fit]"}
    ]}
  ]
}
